# Results from article PMC4980336.
# Chains of the proteins cited; added tags and fusions are not shown. Lines headed by an entry give the natural chain unless they say otherwise; changes in a name come on top.
# UniProt P35606: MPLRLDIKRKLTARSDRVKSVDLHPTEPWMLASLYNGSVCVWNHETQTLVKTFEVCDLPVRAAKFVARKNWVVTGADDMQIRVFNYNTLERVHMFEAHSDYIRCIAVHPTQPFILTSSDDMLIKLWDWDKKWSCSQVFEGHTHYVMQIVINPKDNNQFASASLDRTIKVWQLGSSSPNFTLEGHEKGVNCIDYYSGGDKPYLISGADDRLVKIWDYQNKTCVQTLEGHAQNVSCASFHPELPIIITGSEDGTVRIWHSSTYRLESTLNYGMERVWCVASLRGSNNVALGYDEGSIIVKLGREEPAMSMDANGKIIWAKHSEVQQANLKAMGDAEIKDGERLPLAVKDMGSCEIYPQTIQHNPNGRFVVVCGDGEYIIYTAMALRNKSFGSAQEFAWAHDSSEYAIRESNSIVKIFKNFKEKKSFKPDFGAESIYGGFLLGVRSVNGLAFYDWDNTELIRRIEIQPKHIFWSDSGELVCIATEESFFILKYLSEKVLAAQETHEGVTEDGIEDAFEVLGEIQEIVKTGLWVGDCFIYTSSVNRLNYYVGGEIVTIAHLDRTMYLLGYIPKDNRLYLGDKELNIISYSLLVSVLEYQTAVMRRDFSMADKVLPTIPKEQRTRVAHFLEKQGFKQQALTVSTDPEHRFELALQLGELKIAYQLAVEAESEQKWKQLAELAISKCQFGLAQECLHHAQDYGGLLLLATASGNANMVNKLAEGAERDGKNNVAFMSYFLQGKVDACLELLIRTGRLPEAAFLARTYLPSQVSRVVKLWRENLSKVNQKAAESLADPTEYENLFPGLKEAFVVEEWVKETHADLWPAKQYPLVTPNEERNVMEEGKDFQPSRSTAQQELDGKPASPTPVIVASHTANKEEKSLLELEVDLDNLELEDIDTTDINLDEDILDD
# UniProt O14579: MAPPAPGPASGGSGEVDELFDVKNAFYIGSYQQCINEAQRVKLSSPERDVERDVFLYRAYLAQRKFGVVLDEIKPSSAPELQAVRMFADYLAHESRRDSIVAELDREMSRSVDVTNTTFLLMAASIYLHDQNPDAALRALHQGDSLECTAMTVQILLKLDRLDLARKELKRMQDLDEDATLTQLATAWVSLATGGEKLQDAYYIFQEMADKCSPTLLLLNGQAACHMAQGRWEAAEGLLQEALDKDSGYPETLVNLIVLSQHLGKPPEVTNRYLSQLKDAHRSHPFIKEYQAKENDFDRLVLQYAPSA
# UniProt P53618: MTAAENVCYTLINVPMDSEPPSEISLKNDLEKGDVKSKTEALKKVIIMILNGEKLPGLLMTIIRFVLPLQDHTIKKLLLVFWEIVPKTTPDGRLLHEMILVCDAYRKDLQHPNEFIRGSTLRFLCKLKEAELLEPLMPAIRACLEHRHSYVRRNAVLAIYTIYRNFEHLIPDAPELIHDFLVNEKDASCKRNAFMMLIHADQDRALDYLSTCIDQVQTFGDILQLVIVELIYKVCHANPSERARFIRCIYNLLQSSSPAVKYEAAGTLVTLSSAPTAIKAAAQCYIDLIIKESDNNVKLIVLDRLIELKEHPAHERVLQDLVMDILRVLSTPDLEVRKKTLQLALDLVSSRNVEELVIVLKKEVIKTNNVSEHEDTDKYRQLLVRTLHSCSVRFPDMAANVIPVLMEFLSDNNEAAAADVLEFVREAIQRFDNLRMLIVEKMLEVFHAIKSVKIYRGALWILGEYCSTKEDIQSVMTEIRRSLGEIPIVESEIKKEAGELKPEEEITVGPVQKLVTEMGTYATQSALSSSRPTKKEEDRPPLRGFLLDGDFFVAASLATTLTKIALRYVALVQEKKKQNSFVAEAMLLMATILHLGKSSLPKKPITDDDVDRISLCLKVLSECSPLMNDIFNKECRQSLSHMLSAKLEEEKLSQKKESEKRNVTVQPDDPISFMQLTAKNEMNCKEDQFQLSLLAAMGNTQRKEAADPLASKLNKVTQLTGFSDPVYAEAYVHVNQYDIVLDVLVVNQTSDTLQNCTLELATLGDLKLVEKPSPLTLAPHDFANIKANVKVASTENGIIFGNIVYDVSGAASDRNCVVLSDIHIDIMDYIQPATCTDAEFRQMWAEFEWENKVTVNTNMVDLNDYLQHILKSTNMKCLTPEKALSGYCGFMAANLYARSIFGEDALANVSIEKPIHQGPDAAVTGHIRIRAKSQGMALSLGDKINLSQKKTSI
# These are yes or no findings as the source states them, for the method shown. Some results given as binding are weak or reduced against the parent protein; the word gives no strength.
# Experiments:
# [1] = molecular target: T1, B-subcomplex of recombinant human coatomer (α-, β′- and ε-COP) (human) (UniProt P53621+P35606+O14579); assay: cross-linking; CXMS: about 12 μg purified COPI complex (co-expressed and purified as one complex) with BS3, DSS or Sulfo-GMBS, protein : cross-linker 1:8 or 1:4, one hour at room temperature; trypsin, LC-MS/MS, pLink; both purified
# [2] = molecular target: T1, B-subcomplex of recombinant human coatomer (α-, β′- and ε-COP) (human); assay: negative-stain EM, single-particle reconstruction; soluble recombinant human coatomer, co-expressed and purified as one complex; 2% uranyl acetate; 19 Å overall, 18 Å and 20 Å for the two parts after focus refinement; model of membrane-bound coatomer (PDB 5A1U) fitted as a rigid body; both purified
# [3] = molecular target: T2, α-COP isoform 1 (subunit of recombinant human coatomer) (human) (UniProt P53621); assay: cross-linking; CXMS: about 12 μg purified COPI complex (co-expressed and purified as one complex) with BS3, DSS or Sulfo-GMBS, protein : cross-linker 1:8 or 1:4, one hour at room temperature; trypsin, LC-MS/MS, pLink; both purified
# T2 sequence: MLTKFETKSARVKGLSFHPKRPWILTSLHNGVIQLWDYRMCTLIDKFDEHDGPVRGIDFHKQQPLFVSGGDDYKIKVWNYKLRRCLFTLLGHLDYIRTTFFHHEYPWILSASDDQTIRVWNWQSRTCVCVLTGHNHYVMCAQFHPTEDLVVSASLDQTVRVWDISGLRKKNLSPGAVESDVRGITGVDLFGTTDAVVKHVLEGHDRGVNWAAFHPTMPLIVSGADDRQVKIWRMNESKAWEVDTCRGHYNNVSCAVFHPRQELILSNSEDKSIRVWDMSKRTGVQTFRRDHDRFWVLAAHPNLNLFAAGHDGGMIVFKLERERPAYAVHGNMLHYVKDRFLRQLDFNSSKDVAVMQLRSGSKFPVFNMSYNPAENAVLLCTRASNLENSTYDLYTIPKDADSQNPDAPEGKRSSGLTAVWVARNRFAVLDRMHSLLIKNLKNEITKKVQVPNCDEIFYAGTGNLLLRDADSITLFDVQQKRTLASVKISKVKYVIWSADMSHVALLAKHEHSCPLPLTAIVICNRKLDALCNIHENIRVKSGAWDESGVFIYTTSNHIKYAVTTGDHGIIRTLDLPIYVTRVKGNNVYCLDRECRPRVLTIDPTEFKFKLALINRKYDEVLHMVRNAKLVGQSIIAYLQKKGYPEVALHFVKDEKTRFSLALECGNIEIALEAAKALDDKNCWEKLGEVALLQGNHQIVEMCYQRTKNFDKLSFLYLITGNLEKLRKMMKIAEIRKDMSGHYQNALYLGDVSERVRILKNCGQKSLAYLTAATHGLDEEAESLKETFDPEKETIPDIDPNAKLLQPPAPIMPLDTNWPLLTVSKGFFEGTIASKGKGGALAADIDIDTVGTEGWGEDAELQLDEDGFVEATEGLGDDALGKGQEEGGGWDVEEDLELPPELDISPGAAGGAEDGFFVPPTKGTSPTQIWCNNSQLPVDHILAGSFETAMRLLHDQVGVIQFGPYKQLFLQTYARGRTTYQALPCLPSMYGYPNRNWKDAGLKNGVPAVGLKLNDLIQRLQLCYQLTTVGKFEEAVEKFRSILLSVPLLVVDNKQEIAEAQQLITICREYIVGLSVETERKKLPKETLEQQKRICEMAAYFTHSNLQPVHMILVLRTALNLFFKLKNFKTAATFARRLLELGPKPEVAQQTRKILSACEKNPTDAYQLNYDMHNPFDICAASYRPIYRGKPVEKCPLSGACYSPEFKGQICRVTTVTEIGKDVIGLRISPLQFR
binding [1],binding [2],binding [3],Substance
binds,binds,,"F-subcomplex of recombinant human coatomer (β-, γ-, δ- and ζ-COP) (from UniProt P53618 1-953; Q9Y678 1-874; P48444-1 1-511; P61923-1 1-177)"
,,binds,ε-COP isoform 1 (subunit of recombinant human coatomer) (from UniProt O14579-1 1-308)
